Results: PubChem BioAssay AID2685 (National Center for Advancing Translational Sciences (NCATS), 2010)
Some of the results follow. These are further read-outs of the screen, such as a control signal, another cell line or another target. No call is given for them. Most of these compounds were active or inconclusive in the main read-out, so they are no random draw. Potencies come from curve fits of mixed quality, noted in brackets.

Test: qHTS Assay for Lipid Storage Modulators in Drosophila S3 Cells;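 for cell number change: cells counted by Cell Tracker Red CMTPX staining in the red channel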
Conditions: BODIPY lipid droplet fluorescence, 18-24 h; for cell number change: measured here: cell count max response, cells fed with added oleic acid
Outline: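 Drosophila S3 cells loaded with oleic acid (400 uM, as added) and compounds at several concentrations; lipid droplets imaged by 488-nm laser-scanning cytometry, 500–530 nm intensity and object ratio to cell channel. Percent activity normalized to 20 uM Triacsin C.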

[1] = measured here: lipid fluorescence (Fed channel) AC50, cells fed with added oleic acid
[2] = measured here: cell number channel AC50, cells fed with added oleic acid

Row | Structure (SMILES) | AC50 [1] | cell number change | AC50 [2]
1 | O=C(NCCN1C(=O)S/C(=C\c2cccc(Cl)c2Cl)C1=O)C1=COCCO1 | 29.1 µM [falling, single point] | – | –
2 | CC1(C)Cc2c(sc(/N=C/N3CCCCC3)c2C#N)C(C)(C)N1 | 18.4 µM [falling, single point] | -44.6% | 1.84 µM [falling, full curve]
3 | CCn1cc(Br)c(C(=O)Nc2ccccc2C(=O)OC)n1 | – | – | 3.66 µM [rising, partial curve, poor fit]
4 | COc1ccc(Br)cc1C(=O)Nc1ccc(NC(=O)c2ccco2)cc1 | 0.146 µM [rising, full curve, poor fit] | – | 0.184 µM [rising, full curve, poor fit]
5 | O=C(Nc1nnc(S(=O)(=O)N2CCCC2)s1)c1ccccc1Cl | 29.1 µM [rising, single point] | 2.69% | –
6 | COc1cc(C2Oc3cc(C4Oc5cc(O)cc(O)c5C(=O)C4O)ccc3OC2CO)ccc1O (stereo not given) | 13 µM [rising, partial curve] | 27.6% | 4.11 µM [rising, full curve, poor fit]
7 | NC(=O)NC(Cc1ccccc1)C(=O)NCC1(N2CCCCC2)CCCCC1 (stereo not given) | 2.91 µM [rising, full curve, poor fit] | 3.33% | –
8 | CNc1snc(C)c1C(=O)OC(C)C(=O)c1ccc(F)cc1 (stereo not given) | 18.4 µM [rising, single point] | 13.7% | –
9 | O=C(CN1C(=O)c2cccc3cccc1c23)NC1CCCC1 | – | -30.3% | 29.1 µM [falling, single point]
10 | O=C(Nc1cccc(Cl)c1)NC1CC2CCC(C1)N2Cc1ccco1 (stereo not given) | – | – | 0.58 µM [rising, single point]
11 | O=C(CCCc1nc2ccccc2s1)N1CCN(S(=O)(=O)c2cccs2)CC1 | 29.1 µM [rising, single point] | 31.2% | 20.6 µM [rising, single point]
12 | N#CCCn1c(SCC(=O)N2CCN(S(=O)(=O)c3ccccc3)CC2)nc2ccccc21 | 0.92 µM [rising, full curve] | -11.9% | –
13 | Cc1ccccc1NC(=O)c1ccccc1NC(=O)c1ccccc1F | 0.058 µM [rising, full curve, poor fit] | 13.7% | –
14 | CC1CCCC(C)N1CCNC(=O)C1CCN(S(=O)(=O)N2CCCCC2)CC1 (stereo not given) | 3.66 µM [falling, full curve] | -28.3% | 3.66 µM [falling, full curve, poor fit]
15 | CC(C)(C)OC(=O)N/N=C/c1cc(N=Nc2ccccc2)ccc1O | 16.4 µM [falling, single point] | -30.9% | 16.4 µM [falling, single point]
16 | COCCn1nnnc1C(c1ccc2ncccc2c1)N1CCN(c2ccccc2F)CC1 (stereo not given) | 2.59 µM [rising, single point] | 13.7% | –
17 | Cc1c(C(=O)N2CCCC2)c(S(=O)(=O)Nc2ccccc2Cl)c(C)n1C | – | 1.32% | –
18 | Cn1c(SCC(=O)c2ccc(F)cc2)nnc1-c1cccnc1 | 1.46 µM [rising, full curve] | 15.9% | –
19 | CCCNC(=O)N[C@@H](Cc1ccccc1)C(=O)OC | 6.51 µM [falling, partial curve] | -35.5% | 0.731 µM [falling, full curve]
20 | COc1ccc(OCC(O)CNc2ccc(Br)cc2)cc1 (stereo not given) | 0.13 µM [falling, full curve, poor fit] | -23.5% | –

Row | Structure (SMILES) | AC50 [1] | cell number change | AC50 [2]
21 | Cc1ccc(C)c(NC(=O)CCN2CCN(c3ccccc3F)CC2)c1 | 29.1 µM [rising, single point] | 25.7% | –
22 | O=C(Nc1cccnc1)Nc1cc(Cl)cc(Cl)c1 | 29.1 µM [falling, single point] | -62.5% | 25.9 µM [falling, partial curve]
23 | CCc1ccc(CN2C(=O)c3ccccc3C2C(=O)NCc2cccnc2)cc1 (stereo not given) | 0.13 µM [falling, full curve, poor fit] | – | –
24 | CC(=O)c1ccc(N2CCN(CC(=O)N(CC(C)C)c3c(N)n(CC(C)C)c(=O)[nH]c3=O)CC2)cc1 | 0.731 µM [falling, full curve] | -22.1% | –
25 | CC(C)NC(=O)Cn1c(SCC(=O)NC2CCCC2)nc2ccccc21 | 3.26 µM [rising, partial curve] | 14% | –
26 | CCOc1ccc(-c2nnn(CC(=O)c3ccc4c(c3)OCCO4)n2)cc1 | – | -22.3% | –
27 | O=C(O)c1ccc(CN2CCOCC2)o1 | 0.651 µM [rising, partial curve, poor fit] | 26% | –
28 | CCOc1ccc(C(=O)NC2=NCCS2)cc1 | – | 6.61% | –
29 | CC[n+]1c(C)cc2c(sc3ccccc32)c1C | – | -1.2% | –
30 | Cc1ccc(S(=O)(=O)n2nc(C)cc2C)cc1 | 6.51 µM [rising, single point] | 27.1% | –
31 | COc1cc(/C=N/N2CCN(C3c4ccccc4-c4ccccc43)CC2)ccc1O | 6.51 µM [rising, single point] | – | –
32 | COc1ccc(C(=O)NCC(=O)O)cc1 | 29.1 µM [falling, single point] | – | –
33 | CC1CCCCC1NCC(=O)Nc1ccccc1-c1ccccc1 (stereo not given) | 29.1 µM [falling, single point] | -54.3% | 18.4 µM [falling, single point]
34 | O=C(CSCc1cc(=O)n2nc(C3CC3)sc2n1)Nc1ccc(F)cc1 | 29.1 µM [rising, single point] | 22.1% | –
35 | Cc1cccc(-n2nc3c(c2NC(=O)C2CC2)CS(=O)(=O)C3)c1C | 0.164 µM [rising, full curve, poor fit] | – | –
36 | CC(C)CNC(=O)Cn1nc(C(F)(F)F)c2c1CCCC2 | 13 µM [rising, single point] | 22.8% | –
37 | CCOC(=O)c1ccc(NC(=O)CCc2nc(-c3ccc(Cl)cc3)no2)cc1 | 29.1 µM [falling, single point] | -40.5% | 23.1 µM [falling, partial curve]
38 | CCN(CC)C(=O)CSc1ncnc2sc(C)c(C)c12 | 0.103 µM [rising, full curve, poor fit] | 9.89% | –
39 | Cc1ccc(Sc2ccc(/C=N/O)cc2[N+](=O)[O-])cc1 | 0.92 µM [falling, full curve] | -42.1% | 0.00411 µM [falling, full curve, poor fit]
40 | Cc1ccc(NC(=O)CN(C)S(=O)(=O)c2cccc3cccnc23)cc1C | 16.4 µM [falling, single point] | 8.65% | –

Two of the compounds above, with tabs:
Row	Structure (SMILES)	AC50 [1]	cell number change	AC50 [2]
7	NC(=O)NC(Cc1ccccc1)C(=O)NCC1(N2CCCCC2)CCCCC1 (stereo not given)	2.91 µM [rising, full curve, poor fit]	3.33%	–
8	CNc1snc(C)c1C(=O)OC(C)C(=O)c1ccc(F)cc1 (stereo not given)	18.4 µM [rising, single point]	13.7%	–

Later entries:

Row | Structure (SMILES) | AC50 [1] | cell number change | AC50 [2]
41 | CN(c1ccccc1)S(=O)(=O)c1cccc(NC(=O)Cn2cnc3ccccc3c2=O)c1 | – | 116% | 29.1 µM [rising, single point]
42 | CCC1(c2ccc(Cl)cc2)NC(=S)N(c2ccc(C)cc2)N1 (stereo not given) | – | 32.5% | 8.2 µM [rising, partial curve]
43 | CNc1ccc(/C=C2\CSc3ccccc3C2=O)cc1[N+](=O)[O-] | – | 39.4% | –
44 | CC(=O)NC1CC2CCCC(C1)N2C(=O)Nc1ccc(Cl)c(C(F)(F)F)c1 (stereo not given) | 3.26 µM [falling, single point] | 20.3% | 0.651 µM [falling, full curve, poor fit]
45 | COc1ccc([C@H]2Cc3cccc(O)c3C(=O)O2)cc1O | 0.116 µM [falling, full curve, poor fit] | -14.2% | –
46 | CC(=O)N1CCN(C(=O)c2ccc(OC3CCN(Cc4ccccn4)CC3)cc2)CC1 | 18.4 µM [rising, partial curve, poor fit] | – | –
47 | Cc1ccc(N2C(=O)C3CCC(c4ccccc4)CC3C2=O)cc1 (stereo not given) | – | 5.68% | –
48 | O=C(c1ccc(Cl)cc1)N1CCC(O)(CSc2ccc(Cl)cc2)CC1 | 29.1 µM [rising, single point] | 20.1% | –
49 | O=C(N/C(=C\c1ccco1)C(=O)N1CCCC1)c1ccccc1 | – | -6.58% | –
50 | Cc1cc(OCC(=O)NCCN2CCOCC2)cc(C)c1Br | 6.51 µM [rising, partial curve] | -16.9% | –
51 | O=C(CC(NC(=O)c1ccccc1Cl)c1ccccc1)Nc1ccc2c(c1)OCO2 (stereo not given) | 1.64 µM [rising, partial curve, poor fit] | 30.5% | 0.291 µM [rising, partial curve]
52 | O=C(CSc1nc(-c2ccccc2)cc(=O)[nH]1)Nc1ccccc1F | 2.31 µM [rising, partial curve, poor fit] | 20.5% | –
53 | CCOCCCn1c(NN)nc2ccccc2c1=O | 6.51 µM [falling, partial curve, poor fit] | -21.9% | –
54 | Cc1ccc(S(=O)(=O)N(c2cccc(C)c2)C2CCS(=O)(=O)C2)cc1 (stereo not given) | – | 20.2% | –
55 | O=C(CSc1nc2ncccc2[nH]1)NC1CCCCC1 | – | 17.8% | 1.3 µM [rising, partial curve, poor fit]
56 | OCC1(CCc2ccccc2)CCN(Cc2ccc3nsnc3c2)CC1 | 23.1 µM [rising, partial curve, poor fit] | 32.6% | 36.6 µM [rising, single point]
57 | CCc1nnc(NC(=O)CSc2nnc(-c3ccc(S(=O)(=O)N(CC)CC)cc3)n2CC)s1 | – | 67.3% | –
58 | CCN(C(=O)COC(=O)CSc1ccc([N+](=O)[O-])cc1)C1CCS(=O)(=O)C1 (stereo not given) | 0.00731 µM [rising, full curve, poor fit] | 8.21% | 0.00651 µM [rising, full curve, poor fit]
59 | CCOc1ccc(NC2=NC(C)(C)N=C(N)N2)cc1 | 23.1 µM [falling, partial curve] | -19.2% | –
